Results: the supplement of paper PMC4604168 (melanoma cell lines)
The other results are listed elsewhere or left out. Single values are uncertain, as repeats are few or missing.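 Cells were imaged in 1,536-well plates, and nuclei stained with an antibody against cleaved PARP were counted against all DNA-stained nuclei to give the apoptosis fraction. Screening doses were chosen to leave most cells alive, and resting and induced cleaved-PARP levels differ strongly between cell lines.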

Tests used:
Test in all cases: cleaved PARP positive nuclei fraction relative to DMSO control; melanoma cells; higher = more apoptosis
Conditions in all cases: library dose: low library concentration; 72 h
CBRC034 = test system: CBRC034 (line from a melanoma biopsy)
COLO792 = test system: COLO792
COLO800 = test system: COLO800
COLO829 = test system: COLO829
G361 = test system: G361
IPC-298 = test system: IPC-298
IST-MEL1 = test system: IST-MEL1
LB2518-MEL = test system: LB2518-MEL
LOXIMVI = test system: LOXIMVI
MEL-HO = test system: MEL-HO

Structure (SMILES)	cleaved PARP positive nuclei fraction (CBRC034)	cleaved PARP positive nuclei fraction (COLO792)	cleaved PARP positive nuclei fraction (COLO800)	cleaved PARP positive nuclei fraction (COLO829)	cleaved PARP positive nuclei fraction (G361)	cleaved PARP positive nuclei fraction (IPC-298)	cleaved PARP positive nuclei fraction (IST-MEL1)	cleaved PARP positive nuclei fraction (LB2518-MEL)	cleaved PARP positive nuclei fraction (LOXIMVI)	cleaved PARP positive nuclei fraction (MEL-HO)
Cn1cc(C2=C(c3cn(C4CCN(Cc5ccccn5)CC4)c4ccccc34)C(=O)NC2=O)c2ccccc21 [Enzastaurin] + CNC(=O)c1cc(Oc2ccc(NC(=O)Nc3ccc(Cl)c(C(F)(F)F)c3)cc2)ccn1 [sorafenib] (first compound 0.8 µM, partner dose 0.4 µM)	42.3%	36.4%	88.1%	97.2%	131%	671%	40.3%	106%	68.3%	151%
Cc1cn(-c2cc(NC(=O)c3ccc(C)c(Nc4nccc(-c5cccnc5)n4)c3)cc(C(F)(F)F)c2)cn1 [nilotinib] + N.N.[Cl][Pt][Cl] [cisplatin] (first compound 0.2 µM, partner dose 1.6 µM)	76%	124%	116%	84.9%	105%	88.2%	87.8%	108%	22.4%	72.3%
CS(=O)(=O)CCNCc1ccc(-c2ccc3ncnc(Nc4ccc(OCc5cccc(F)c5)c(Cl)c4)c3c2)o1 [lapatinib] + C[As](C)SC[C@H](NC(=O)CC[C@H](N)C(=O)O)C(=O)NCC(=O)O [Darinaparsin] (first compound 0.8 µM, partner dose 0.4 µM)	76.2%	90.8%	80.9%	171%	163%	45.5%	70.7%	104%	127%	170%
O=C(O)c1ccc2c(c1)nc(Nc1cccc(Cl)c1)c1ccncc12 + C[As](C)SC[C@H](NC(=O)CC[C@H](N)C(=O)O)C(=O)NCC(=O)O [Darinaparsin] (first compound 0.4 µM, partner dose 0.4 µM)	150%	51.7%	171%	80.1%	36.1%	47.7%	87.4%	95.9%	107%	45.7%
O=C(O)[C@@H]1[O][Sb](=[O])([O][Sb]2(=[O])[O][C@H]([C@H](O)CO)[C@H](O)[C@H](C(=O)O)[O]2)[O][C@H]([C@H](O)CO)[C@@H]1O (stereo not given in full) [stibogluconate] + C[As](C)SC[C@H](NC(=O)CC[C@H](N)C(=O)O)C(=O)NCC(=O)O [Darinaparsin] (first compound 2 µM, partner dose 0.4 µM)	143%	79.1%	111%	210%	71%	79.1%	77.9%	183%	143%	124%
O=C(Nc1cc(C(F)(F)F)cc(C(F)(F)F)c1)c1cc(Cl)ccc1O + Cn1cc(C2=C(c3cn(C4CCN(Cc5ccccn5)CC4)c4ccccc34)C(=O)NC2=O)c2ccccc21 [Enzastaurin] (first compound 0.016 µM, partner dose 0.8 µM)	54.2%	120%	39.5%	26.5%	115%	41.8%	185%	132%	147%	115%
Cn1cc(C2=C(c3cn(C4CCN(Cc5ccccn5)CC4)c4ccccc34)C(=O)NC2=O)c2ccccc21 [Enzastaurin] + Cc1nc(Nc2ncc(C(=O)Nc3c(C)cccc3Cl)s2)cc(N2CCN(CCO)CC2)n1 [dasatanib] (first compound 0.8 µM, partner dose 0.004 µM)	55.3%	38.7%	133%	82.5%	125%	40.8%	74.7%	57.5%	143%	33.5%
Cn1cc(C2=C(c3cn(C4CCN(Cc5ccccn5)CC4)c4ccccc34)C(=O)NC2=O)c2ccccc21 [Enzastaurin] + Nc1ccn([C@@H]2O[C@H](CO)[C@@H](O)C2(F)F)c(=O)n1 [gemcitabine] (first compound 0.8 µM, partner dose 0.0004 µM)	431%	105%	51.4%	122%	42.5%	148%	140%	51.4%	54.9%	44%
CC[C@]1(O)C[C@H]2CN(CCc3c([nH]c4ccccc34)[C@@](C(=O)OC)(c3cc4c(cc3OC)N(C=O)[C@H]3[C@@](O)(C(=O)OC)[C@H](OC(C)=O)[C@]5(CC)C=CCN6CC[C@]43[C@@H]65)C2)C1 [vincristine] + Cn1cc(C2=C(c3cn(C4CCN(Cc5ccccn5)CC4)c4ccccc34)C(=O)NC2=O)c2ccccc21 [Enzastaurin] (first compound 0.0001 µM, partner dose 0.8 µM)	68.6%	117%	128%	91.4%	84.7%	41.8%	186%	116%	46.8%	59.1%
N.N.[Cl][Pt][Cl] [cisplatin] + OCc1c[nH]c2ccccc12 [Indole-3-carbinol] (first compound 1.6 µM, partner dose 0.8 µM)	46.5%	197%	81%	98.6%	184%	83.5%	67.4%	110%	67.6%	46.1%
N.N.[Cl][Pt][Cl] [cisplatin] + COCC[n+]1c2c(n(Cc3cnccn3)c1C)C(=O)c1ccccc1C2=O [YM155] (first compound 1.6 µM, partner dose 0.0004 µM)	190%	161%	159%	59.5%	51.2%	43.5%	128%	206%	177%	179%
Cn1cc(C2=C(c3cn(C4CCN(Cc5ccccn5)CC4)c4ccccc34)C(=O)NC2=O)c2ccccc21 [Enzastaurin] + Cn1nnc2c(C(N)=O)ncn2c1=O [temozolomide] (first compound 0.8 µM, partner dose 2 µM)	104%	71.2%	47.5%	55.9%	151%	136%	62.2%	55.6%	259%	77.5%
Cn1cc(C2=C(c3cn(C4CCN(Cc5ccccn5)CC4)c4ccccc34)C(=O)NC2=O)c2ccccc21 [Enzastaurin] + O=C(O)c1ccc2c(c1)nc(Nc1cccc(Cl)c1)c1ccncc12 [CX4945] (first compound 0.8 µM, partner dose 0.4 µM)	43.7%	32.5%	88.4%	66.8%	118%	120%	165%	99.5%	322%	21.2%
C[As](C)SC[C@H](NC(=O)CC[C@H](N)C(=O)O)C(=O)NCC(=O)O [Darinaparsin] + Cn1c(Nc2ccc(C(F)(F)F)cc2)nc2cc(Oc3ccnc(-c4ncc(C(F)(F)F)[nH]4)c3)ccc21 [CHIR265] (first compound 0.4 µM, partner dose 0.08 µM)	179%	223%	23.7%	67%	228%	198%	132%	410%	70.1%	39.2%
C[C@]12O[C@H](C[C@]1(O)CO)n1c3ccccc3c3c4c(c5c6ccccc6n2c5c31)CNC4=O [Lestaurtinib] + OCc1c[nH]c2ccccc12 [Indole-3-carbinol] (first compound 0.004 µM, partner dose 0.8 µM)	64.8%	152%	127%	95.3%	33.5%	84.9%	59.3%	110%	30.6%	121%
O=C(Nc1cc(C(F)(F)F)cc(C(F)(F)F)c1)c1cc(Cl)ccc1O + C[C@]12O[C@H](C[C@]1(O)CO)n1c3ccccc3c3c4c(c5c6ccccc6n2c5c31)CNC4=O [Lestaurtinib] (first compound 0.016 µM, partner dose 0.004 µM)	73.8%	160%	96.3%	144%	156%	82.8%	63.9%	101%	138%	99.4%
C[C@@H](N)c1ccc(C(=O)Nc2ccnc3[nH]ccc23)cc1 + N.N.[Cl][Pt][Cl] [cisplatin] (first compound 0.4 µM, partner dose 1.6 µM)	67.1%	192%	108%	86.8%	184%	164%	87.7%	106%	112%	182%
Cn1cc(C2=C(c3cn(C4CCN(Cc5ccccn5)CC4)c4ccccc34)C(=O)NC2=O)c2ccccc21 [Enzastaurin] + C[C@]1(c2nc3c(C(N)=O)cccc3[nH]2)CCCN1 [Veliparib] (first compound 0.8 µM, partner dose 1.4 µM)	79.2%	128%	79.1%	91.9%	91.3%	81.4%	30.9%	55.4%	125%	57.2%
Cn1cc(C2=C(c3cn(C4CCN(Cc5ccccn5)CC4)c4ccccc34)C(=O)NC2=O)c2ccccc21 [Enzastaurin] + C=C(c1ccc(C(=O)O)cc1)c1cc2c(cc1C)C(C)(C)CCC2(C)C [Bexarotene] (first compound 0.8 µM, partner dose 2 µM)	83.4%	86.3%	59%	117%	241%	86.9%	124%	99.8%	19%	35.5%
C[As](C)SC[C@H](NC(=O)CC[C@H](N)C(=O)O)C(=O)NCC(=O)O [Darinaparsin] + Cc1nc(Nc2ncc(C(=O)Nc3c(C)cccc3Cl)s2)cc(N2CCN(CCO)CC2)n1 [dasatanib] (first compound 0.4 µM, partner dose 0.004 µM)	369%	104%	183%	131%	112%	60.1%	80.1%	79.3%	111%	89%
C[C@]12O[C@H](C[C@]1(O)CO)n1c3ccccc3c3c4c(c5c6ccccc6n2c5c31)CNC4=O [Lestaurtinib] + C=CCNC1=C2C[C@@H](C)C[C@H](OC)[C@H](O)[C@@H](C)/C=C(\C)[C@H](OC(N)=O)[C@@H](OC)/C=C\C=C(/C)C(=O)NC(=CC1=O)C2=O [Tanespimycin] (first compound 0.004 µM, partner dose 0.002 µM)	66.5%	87.6%	117%	93.2%	90.5%	188%	120%	105%	123%	41.5%

Two entries picked at random from those above:
Structure (SMILES)	cleaved PARP positive nuclei fraction (CBRC034)	cleaved PARP positive nuclei fraction (COLO792)	cleaved PARP positive nuclei fraction (COLO800)	cleaved PARP positive nuclei fraction (COLO829)	cleaved PARP positive nuclei fraction (G361)	cleaved PARP positive nuclei fraction (IPC-298)	cleaved PARP positive nuclei fraction (IST-MEL1)	cleaved PARP positive nuclei fraction (LB2518-MEL)	cleaved PARP positive nuclei fraction (LOXIMVI)	cleaved PARP positive nuclei fraction (MEL-HO)
O=C(O)c1ccc2c(c1)nc(Nc1cccc(Cl)c1)c1ccncc12 + C[As](C)SC[C@H](NC(=O)CC[C@H](N)C(=O)O)C(=O)NCC(=O)O [Darinaparsin] (first compound 0.4 µM, partner dose 0.4 µM)	150%	51.7%	171%	80.1%	36.1%	47.7%	87.4%	95.9%	107%	45.7%
Cn1cc(C2=C(c3cn(C4CCN(Cc5ccccn5)CC4)c4ccccc34)C(=O)NC2=O)c2ccccc21 [Enzastaurin] + C[C@]1(c2nc3c(C(N)=O)cccc3[nH]2)CCCN1 [Veliparib] (first compound 0.8 µM, partner dose 1.4 µM)	79.2%	128%	79.1%	91.9%	91.3%	81.4%	30.9%	55.4%	125%	57.2%
